# Screening data, single-dose tests

Protein sequences, listed by entry. Tags and fused reporters are not part of them. Residues count along the entry.
UniProt P9WFT3, whole entry: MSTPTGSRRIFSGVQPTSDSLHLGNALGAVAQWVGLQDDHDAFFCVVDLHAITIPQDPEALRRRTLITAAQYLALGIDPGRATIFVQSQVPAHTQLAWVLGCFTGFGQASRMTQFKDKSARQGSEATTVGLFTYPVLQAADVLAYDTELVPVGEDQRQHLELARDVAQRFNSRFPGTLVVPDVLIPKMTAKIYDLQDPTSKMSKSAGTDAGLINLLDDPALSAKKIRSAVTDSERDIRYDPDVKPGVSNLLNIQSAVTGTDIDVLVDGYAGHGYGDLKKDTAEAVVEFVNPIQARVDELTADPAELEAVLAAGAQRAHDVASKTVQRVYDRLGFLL
UniProt Q8IDJ8, 1-583: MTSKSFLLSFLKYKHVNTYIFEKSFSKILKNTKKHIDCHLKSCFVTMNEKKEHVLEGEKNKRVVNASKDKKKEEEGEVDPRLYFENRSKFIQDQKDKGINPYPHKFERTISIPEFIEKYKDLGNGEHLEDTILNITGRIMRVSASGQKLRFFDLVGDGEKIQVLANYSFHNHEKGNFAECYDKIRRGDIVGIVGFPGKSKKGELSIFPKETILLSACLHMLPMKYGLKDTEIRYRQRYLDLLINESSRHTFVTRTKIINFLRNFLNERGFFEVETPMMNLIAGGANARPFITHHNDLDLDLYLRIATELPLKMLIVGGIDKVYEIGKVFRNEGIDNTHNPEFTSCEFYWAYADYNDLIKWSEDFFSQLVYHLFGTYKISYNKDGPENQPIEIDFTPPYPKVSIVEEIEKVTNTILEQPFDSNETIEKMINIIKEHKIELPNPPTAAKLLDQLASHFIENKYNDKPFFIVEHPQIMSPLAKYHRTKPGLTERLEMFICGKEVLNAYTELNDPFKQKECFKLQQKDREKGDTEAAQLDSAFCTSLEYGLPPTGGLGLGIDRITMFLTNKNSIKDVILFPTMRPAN
UniProt P9WPC5, whole entry: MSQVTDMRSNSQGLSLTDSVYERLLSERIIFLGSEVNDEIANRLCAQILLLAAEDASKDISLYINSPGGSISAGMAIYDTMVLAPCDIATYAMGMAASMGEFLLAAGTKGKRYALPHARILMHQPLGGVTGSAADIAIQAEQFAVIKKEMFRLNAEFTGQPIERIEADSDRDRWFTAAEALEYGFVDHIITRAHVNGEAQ
UniProt P9WPC3, whole entry partner: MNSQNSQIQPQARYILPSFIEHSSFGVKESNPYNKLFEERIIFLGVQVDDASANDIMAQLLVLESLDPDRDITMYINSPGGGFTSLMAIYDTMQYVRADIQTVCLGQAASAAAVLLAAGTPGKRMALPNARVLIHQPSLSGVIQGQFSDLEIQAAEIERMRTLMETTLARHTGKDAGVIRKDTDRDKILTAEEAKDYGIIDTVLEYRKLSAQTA

The values are deposited in ChEMBL (CHEMBL3988442, “University of Dundee, Small-Polar-MMV Screening Library” (2021)).

A: 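Enzyme assay of tryptophanyl-tRNA synthetase; the read-out is not stated. Target: Tryptophan-tRNA ligase, Mycobacterium tuberculosis (UniProt P9WFT3). Compounds at 10 µM. Direction is not recorded; retested compounds ran higher, which suggests that high means inhibition. About 65,000 compounds were tested under these conditions; 0.098% (about 64) showed 50% or more at least once.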
B: 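Enzyme assay of the cytosolic lysyl-tRNA synthetase in 384-well plates, read by luminescence. Target: Lysine-tRNA ligase, Plasmodium falciparum 3D7 (UniProt Q8IDJ8). Compounds at 30 µM. Direction is inferred from only a few compounds that gave an IC50; most scored high, so higher reads as stronger inhibition. Of about 69,000 compounds tested this way, about 49 (0.071%) reached 50% or more in at least one test.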
C: 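Protease assay of ClpP1P2, read by the AMC dye that it sets free. Target: ClpP1P2, Mycobacterium tuberculosis (UniProt P9WPC5 and UniProt P9WPC3). Compounds at 50 µM. Higher reads as stronger inhibition, judged from the few compounds that gave an IC50. Most other retested compounds had strongly negative values. Of about 69,000 compounds tested this way, about 10 (0.015%) reached 50% or more in at least one test.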

Values are the deposited “Percent Effect”, in %.
The record does not define 0% and 100%; most values in the screen are far below 50% and negative numbers occur (in some assays of this library far below -100).
Compounds were drawn at random from those tested, without regard to their results.

Result for Cc1[nH]/c(=N\C(=O)c2csc(NC3CC3)n2)sc1C was A: -10.78%; B: 2.282%; C: -7.183%. With O=C(NC1CCCC1)c1ccnc(C2CCNCC2)c1 the screen gave A: -7.92%; B: 1.047%; C: -21.55%. CC(C)c1cc(NC(=O)CN2CCc3cncnc3C2)on1 read A: 2.638%; B: 9.008%; C: -7.01%. CCC(CC)CN1CCC(n2cc(C3CCCC3)nn2)CC1 read A: -6.71%; B: 5.628%; C: -1.994%. For COC(C(=O)N1CCN(Cc2noc(C)n2)CC1)c1ccccc1 (centres unmarked) the result was A: -3.254%; B: 0.7008%; C: 1.265%. With Cc1ccoc1C(=O)NC1CCN(Cc2ccccc2C#N)CC1 the screen gave A: -3.323%; B: 1.312%; C: -2.295%. Result for CCS(=O)(=O)N1CCC2(CC1)CC[C@@]1(C(=O)NC)CN(C(C)=O)C[C@@H]21 was A: 12.2%; B: 0.5245%; C: 5.731%.

c1ccc(CC2CCN(Cc3ccnc(-c4cccnc4)n3)CC2)cc1 read A: 0.5853%; B: 3.628%; C: -10.77%. c1cnn(CC2CCCCN2c2ncnc3ccsc23)c1 (centres unmarked) read A: 9.289%; B: 0.2812%; C: -25.41%. CC(C)N(C(=O)N1CCn2cncc2C1)C(C)C gave A: 0.9726%; B: 4.079%; C: -1.366%. CCc1ccc(C(=O)N2CCCC2c2nnc3n2CCCCC3)o1 (centres unmarked) read A: 1.577%; B: -1.557%; C: -11.86%. CC(C)CCN(C)Cc1nc2c(cnn2C)c(=O)[nH]1 gave A: -5.882%; B: 1.252%; C: -12.56%. Result for O=C1CC(c2ccccc2)C2(CCN(C(=O)c3cnccn3)CC2)N1 (centres unmarked) was A: -1.728%; B: 1.974%; C: -1.201%. Cc1cn2c(n1)CCC(NC(=O)c1cncnc1C)C2 (centres unmarked) read A: -2.759%; B: -1.693%; C: -21.45%.

For CCn1ncc(C(=O)NCc2ccc(C)c(OC)c2)c1C(F)(F)F the result was A: -0.06817%; B: 5.17%; C: -5.482%. For CC(C)n1c2ccccc2c2c1cc(C(=O)N(C)C)n2C the result was B: -0.7873%; C: -10.51%. Cc1cncnc1C1CCN(C(=O)CN(C)C)CC1 read A: -3.193%; B: 1.976%; C: -7.278%. With CN(Cc1ccc2c(c1)OCO2)Cc1nc(-c2ccco2)no1 the screen gave A: -5.455%; B: 5.278%; C: 2.415%. For Cc1nc(Oc2ccccc2F)sc1C(=O)O the result was A: 1.075%; B: 12.91%; C: -20.97%. Result for CS(=O)(=O)N[C@@H]1CN(C(=O)c2ccccn2)[C@@H]2CCCO[C@@H]21 was A: 3.749%; B: -0.4541%; C: -1.697%. For O=C(Cc1cn2ccccc2n1)N1CCCC(n2cccn2)C1 (centres unmarked) the result was A: 25.5%; B: -2.425%; C: -5.068%.

CN1CC2(CCN(Cc3ncc[nH]3)CC2)CC1=O gave A: 0.343%; B: 1.008%; C: 3.004%. Cc1cc2n(n1)[C@@H](C(F)(F)F)C[C@@H](C1CCN(C(=O)C3CC3)CC1)N2 read A: -0.1739%; B: 1.836%; C: -0.9472%. With CCOc1cc(C)nc(N2CCN(C(=O)c3cc[nH]n3)CC2)n1 the screen gave A: -0.5313%; B: 0.2373%; C: -14.63%. For C[C@@H]1C[C@H]2CN(Cc3nccs3)C[C@H]2O1 the result was A: 1.066%; B: 6.604%; C: 15.81%. With Cc1occc1C(=O)NCC(O)c1ccc(Cl)s1 (centres unmarked) the screen gave A: 2.913%; B: 1.475%; C: 0.2169%. CC(=O)Nc1nc(C(=O)N2CCCC(n3nc(C)nc3C)C2)cs1 (centres unmarked) gave A: 1.002%; B: 1.032%; C: -9.985%. With Cn1ccnc1CN1CCCN(Cc2noc(C3CC3)n2)CC1 the screen gave A: -10.2%; B: 2.118%; C: -13.56%.

Clc1cc(N2CCN(C3CCOCC3)CC2)nc2[nH]ccc12 read A: 4.258%; B: 8.386%; C: -11.45%. With Cc1cc(C)n(CC2CCCN2CC(=O)N(C)CCC#N)n1 (centres unmarked) the screen gave A: -3.39%; B: 0.9246%; C: -11.5%. Result for CCC(=O)N1CCC(NC2CCCC2)C1 (centres unmarked) was A: 1.188%; B: -0.01223%; C: 5.965%. OCCN(Cc1ccccc1)Cc1nc(-c2ccc3c(c2)OCO3)no1 gave A: 4.337%; B: 1.464%; C: -17.05%. For COCCNc1ccccc1CNC(=O)C1CCCOC1 (centres unmarked) the result was A: -3.62%; B: 1.078%; C: -6.429%. CSCCC(=O)N1C[C@H](Nc2ccnc(C)n2)[C@@H](C(C)C)C1 read A: 0.5939%; B: 4.716%; C: -7.792%. Cc1c(CN2CCCC2(C)C(=O)N2CCOCC2)cnn1C (centres unmarked) gave A: -6.635%; B: 0.9001%; C: 7.544%.

O=C(O)c1cnc(OCC2CC2)c(Br)c1 read A: -2.287%; B: 5.115%; C: -11%. For CC(C)N1CCO[C@H]2CN(Cc3cc[nH]n3)C[C@H]21 the result was B: 0.5014%; C: 3.444%.

The last 4 entries again:

{"structure": "CSCCC(=O)N1C[C@H](Nc2ccnc(C)n2)[C@@H](C(C)C)C1", "A": 0.5939, "B": 4.716, "C": -7.792}
{"structure": "Cc1c(CN2CCCC2(C)C(=O)N2CCOCC2)cnn1C", "stereo": "centres unmarked", "A": -6.635, "B": 0.9001, "C": 7.544}
{"structure": "O=C(O)c1cnc(OCC2CC2)c(Br)c1", "A": -2.287, "B": 5.115, "C": -11}
{"structure": "CC(C)N1CCO[C@H]2CN(Cc3cc[nH]n3)C[C@H]21", "B": 0.5014, "C": 3.444}